Test results: patent US20160266153A1, “I[…] PREGABALIN” (Randox Laboratories Limited, priority 2015, published 2016)

Test system: antibody RS2845 (raised against Immunogen II)
Test: Competitive ELISA: HRP tracer (Tracer 1) versus pregabalin or potential cross-reactants for binding sites of polyclonal antibody RS2845
Conditions: 450 nm
Description: The antibody titre is evaluated by coating a microtitre plate (Thermo Fisher Scientific NUNC, 468667) with antibody (125 μl/well) in coating buffer (10 mM Tris pH 8.5) at 37° C. for 2 hours. The plate is then washed 4 times over 10 minutes with working strength mixture of Tris-Buffered Saline and Tween 20 (TBST). 50 μl of sample/standard (pregabalin) is added to the appropriate wells in triplicate, followed by 75 μl of hapten-HRP conjugate and incubated at 25° C. for 1 hour. The plate is then washed and 125 μl of TMB (Randox Laboratories, 4380-15) added to each well and left at room temperature for 20 mins in the dark. The reaction is stopped using 125 μl of 0.2 M sulphuric acid. The absorbances are read at 450 nm with an ELISA microplate reader (BIO-TEK Instruments, Elx800) and the means calculated. Antibody sensitivity can then be determined.
IgG was extracted from serum from the immunized animal the using ammonium sulphate/caprylic acid precipitation and the purified antibody was immobilised on a 96 well ELISA plate at 5 μg/ml in 10 mM TRIS buffer, pH 8.5 overnight at 4° C. The assay was based on competition for binding sites of a polyclonal antibody between HRP tracer and pregabalin or potential cross-reactants. The plate was washed (×3) with TBST and the calibrator (pregabalin) or potential cross reactants added (50 μl per well), followed by HRP tracer (75 μl/well) to the appropriate wells. The plates were then incubated for 60 minutes at 25° C. They were then subjected to 2 quick wash cycles using TBST, followed by 4×2 minute wash cycles. 125 μL of signal 25 (TMB) was then added to each well for 20 mins at room temperature in the dark. The reaction was stopped by the addition of 125 μl of 0.2 M Sulphuric Acid per well and the plates read immediately at 450 nm. Calibration curves were generated and these were used to determine the sensitivity and specificity of the immunoassay for pregabalin and potential cross-reactants. The data was inputted to a computer program called ‘KC Junior’ (Biotek). […] This program is used to calculate the IC50 values by dividing the 0 ng/ml optical density (OD) value by 2 and obtaining the concentration value from the curve for this OD.
wherein % CR is the percentage cross-reactivity, IC50 pregabalin is the concentration of pregabalin which causes 50% displacement of signal and IC50 CR is the concentration of potential cross-reactant that causes 50% displacement of signal.
The antibody (RS2845) used to generate the data in the tables below was raised from Immunogen II (Example 9) and the HRP tracer was prepared as in Example 10 (Tracer 1).

With `CC(C)CC(CN)CC(=O)O` (centres unmarked) [Pregabalin, 3-(aminomethyl)-5-methylhexanoic acid] the “Average OD” value (pregabalin 0.02 ng/ml) was 1.862, the “Average OD” value (pregabalin 0.08 ng/ml) was 1.276 and the “Average OD” value (pregabalin 0.31 ng/ml) was 0.696. For the same molecule, the “Average OD” value (pregabalin 1.25 ng/ml) was 0.346 and the “Average OD” value (pregabalin 5.00 ng/ml) was 0.178.
